Assay results published in EP0081756A1, “New compounds with antiinflammatory and antitussive activity, process for their preparation and relative pharmaceutical compositions” (MEDEA RESEARCH S.r.l., priority 1981, dated 1983).
At least one structure is not confirmed: it was looked up by name or label, or the drawing left a doubt.

What was measured:
Type in all cases: in vivo
motor activity = assay: Spontaneous motor activity; conditions: Swiss mouse, 50 mg/kg i.p., two hours following treatment
Procedure: The effect of MR 549 on the motor activity has been studied in the Swiss mouse, by placing two groups of animals in a box connected with a recorder detec ting spontaneous motility. On the basis of movemen- ts/minute recorded, MR 549 at the dose of 50 mg/kg i.p. has been administered to one group and the ac tivity has been recorded during the 2 hours following treatment; the second group, treated with the solvent alone, has been used as control group.

[1] = system: whrithing by phenylquinone; assay: Analgesic activity, writhing by phenylquinone (method of Siegmund); conditions: mice, 50 mg/kg per os
carrageenin edema = assay: Antiinflammatory activity, carrageenin edema test (method of Winter); conditions: rat, 50 mg/kg oral
Procedure: The antiinflammatory activity of MR 549 has been assessed by the carrageenin edema test in the rat according to the method of Winter et al. (Proc. Soc. Exp. Biol. Med., 1962, III, 544).
The product under exam and indomethaoin at equiponderant doses have been administered by the oral route 30 minutes before of the subplantar carragee ning injection; pletismographic measures of the edemas have been performed 3 hours after they had been induced.

Structure (SMILES): Cc1cccnc1NC(=O)C1(c2ccccc2)CCCC1 [MR 549, 2-[(1-phenyl)cyclopentyl-carbonyl]-amino-3-methylpyridine]
- effect on motor activity (verbal summary) (motor activity): does'nt change the motor activity
- analgesic activity (verbal summary) [1]: potent analgesic activity
- antiinflammatory activity (verbal summary) (carrageenin edema): good antiinflammatory activity, slightly lower than that of indomethacin
